Measured values: article PMC10774338
Positions count from the first letter of the chain named. These are yes or no findings as the source states them, for the method shown. In cells and extracts the contact can be indirect. A result given as binding can be weak or reduced; the word gives no strength. Where a sequence is shown, tags or fusion partners need not be part of it.

Experiments:
Assay in all cases: co-IP; GFP-WDR44 wild-type or variants transiently expressed in RPE1 WDR44 KO F4 cells for 48 h; GFP proteins immunoprecipitated from lysate, blots probed with GFP, RAB11 and VAPA antibodies
[1] = target: T1, GFP-tagged WDR44 H839R (human) (UniProt Q5JSH3)
T1 sequence: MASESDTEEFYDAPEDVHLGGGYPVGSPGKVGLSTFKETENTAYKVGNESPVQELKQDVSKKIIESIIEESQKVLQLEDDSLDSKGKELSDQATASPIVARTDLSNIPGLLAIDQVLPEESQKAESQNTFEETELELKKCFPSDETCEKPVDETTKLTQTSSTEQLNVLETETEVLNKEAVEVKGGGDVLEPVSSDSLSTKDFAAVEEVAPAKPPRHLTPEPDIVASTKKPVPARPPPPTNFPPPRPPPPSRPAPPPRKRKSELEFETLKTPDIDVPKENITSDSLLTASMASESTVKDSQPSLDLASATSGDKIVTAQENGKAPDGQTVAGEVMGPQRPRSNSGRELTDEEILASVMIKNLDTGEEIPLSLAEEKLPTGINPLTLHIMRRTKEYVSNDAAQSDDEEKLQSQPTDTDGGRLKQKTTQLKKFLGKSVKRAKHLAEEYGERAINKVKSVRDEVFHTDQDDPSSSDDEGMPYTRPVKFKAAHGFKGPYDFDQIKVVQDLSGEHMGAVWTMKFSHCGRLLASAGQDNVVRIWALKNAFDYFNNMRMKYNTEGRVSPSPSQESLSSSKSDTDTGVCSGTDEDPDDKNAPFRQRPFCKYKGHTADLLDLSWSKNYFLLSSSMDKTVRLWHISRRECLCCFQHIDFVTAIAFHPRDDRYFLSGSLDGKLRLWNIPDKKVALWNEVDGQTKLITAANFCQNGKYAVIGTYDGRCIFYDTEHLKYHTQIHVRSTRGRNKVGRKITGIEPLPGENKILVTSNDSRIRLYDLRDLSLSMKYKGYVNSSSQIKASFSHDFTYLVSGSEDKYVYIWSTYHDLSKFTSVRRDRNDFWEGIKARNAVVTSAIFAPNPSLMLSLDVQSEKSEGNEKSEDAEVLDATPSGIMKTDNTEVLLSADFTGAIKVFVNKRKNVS

[2] = target: T2, GFP-tagged WDR44 wild-type (human) (UniProt Q5JSH3)
T2 sequence: T1 sequence with R839H

[3] = target: T3, GFP-tagged WDR44 N840S (human) (UniProt Q5JSH3)
T3 sequence: T1 sequence with R839H, N840S

- binding [1]: binds
- binding [2]: binds
- binding [3]: binds
Substance: Endogenous RAB11
